Test results published in paper PMC10520872.
These are yes or no findings as the source states them, for the method shown. Binding seen in cells or lysates may run through a third protein. Here binding means that the protein was enriched with, or labelled near, the bait; the list need not be complete. Sequences can lack the tags named with a protein.

T1: Mst77F-V5 (male-specific transcript 77F, recombinant full-length with a C-terminal V5 tag) (Drosophila melanogaster) (UniProt P16909)
T1 sequence: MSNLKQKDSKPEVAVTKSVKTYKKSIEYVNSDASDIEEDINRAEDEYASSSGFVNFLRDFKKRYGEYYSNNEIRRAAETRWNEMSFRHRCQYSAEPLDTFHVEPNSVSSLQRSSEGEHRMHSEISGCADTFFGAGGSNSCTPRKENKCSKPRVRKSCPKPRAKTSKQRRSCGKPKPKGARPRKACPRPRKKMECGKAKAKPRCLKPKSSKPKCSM

B1: NAP1 (nucleosome assembly protein 1), native, from Drosophila embryonic S-190 extract (protein, UniProt Q9W1G7 1-370)
chain: MDAPAEGHVDPESCNEIEDEKSGSDCQSMPAYMNSVMRRQYLQQMVKMLPAPVQNRIVFLKNLQLQHLNIEAQFFEDVYKLEQKYQVQYQPLFDKRREIIEGKVDPAEEKPQWKEPESSTDNEADAEHFREALSSLKSIPKDAKGIPGFWLTVFRNTAIMSEMVQPHDEPAIRKLIDISIKYDNGHSYTLEFHFDKNEYFSNSVLTKQYVLKSTVDPNDPFAFEGPEIYKCTGCTINWEKKMNLTVKTIRKKQKHKERGAVRTIVKQVPTDSFFNFFSPPEVPSDQEEVDDDSQQILATDFEIGHFLRARIIPKAVLYYTGDIVDDEDDEDEEEYDENEEDEYDDDDAPPPKGPKSAGIKKQSPNDCPNQ
B2: NLP (nucleoplasmin-like protein), native, from Drosophila embryonic S-190 extract (protein, UniProt Q27415 1-152)
chain: MAEESFYGVTLTAESDSVTWDVDEDYARGQKLVIKQILLGAEAKENEFNVVEVNTPKDSVQIPIAVLKAGETRAVNPDVEFYESKVTFKLIKGSGPVYIHGHNIKDDVEVVDMEEDDEEDDVAEDEEDEHPKKRAKIENAADGKNAKNNKKK

Target: T1, Mst77F-V5 (male-specific transcript 77F, recombinant full-length with a C-terminal V5 tag) (Drosophila melanogaster)
Assay: affinity purification with mass spectrometry; Mst77F-V5 released from the DNA-Mst77F-V5 substrate by S-190 embryonic extract; top fractions of a 5-45% sucrose gradient (25 mM Hepes-K+ pH 7.6, 150 mM NaCl, 4 °C) immunoprecipitated with anti-V5 agarose, eluted with glycine pH 2.0; SDS-PAGE bands identified by mass spectrometry; control: S-190 only; only the target purified

| Binder | binding |
| --- | --- |
| B1 | binds |
| B2 | binds |
